According to US7951782B2, “Composition effective to prevent or treat adult disease” (Maruha Nichiro Seafoods, Inc, priority 2005, dated 2011):
Not every detail of the peptide structures is certain; ends, links or a residue may be inferred. Residues, ends and D or L forms follow the SMILES beside them. No end group written: not given here.

The chains behind the UniProt entries cited, without tags or fusion partners.
UniProt P80457, whole entry: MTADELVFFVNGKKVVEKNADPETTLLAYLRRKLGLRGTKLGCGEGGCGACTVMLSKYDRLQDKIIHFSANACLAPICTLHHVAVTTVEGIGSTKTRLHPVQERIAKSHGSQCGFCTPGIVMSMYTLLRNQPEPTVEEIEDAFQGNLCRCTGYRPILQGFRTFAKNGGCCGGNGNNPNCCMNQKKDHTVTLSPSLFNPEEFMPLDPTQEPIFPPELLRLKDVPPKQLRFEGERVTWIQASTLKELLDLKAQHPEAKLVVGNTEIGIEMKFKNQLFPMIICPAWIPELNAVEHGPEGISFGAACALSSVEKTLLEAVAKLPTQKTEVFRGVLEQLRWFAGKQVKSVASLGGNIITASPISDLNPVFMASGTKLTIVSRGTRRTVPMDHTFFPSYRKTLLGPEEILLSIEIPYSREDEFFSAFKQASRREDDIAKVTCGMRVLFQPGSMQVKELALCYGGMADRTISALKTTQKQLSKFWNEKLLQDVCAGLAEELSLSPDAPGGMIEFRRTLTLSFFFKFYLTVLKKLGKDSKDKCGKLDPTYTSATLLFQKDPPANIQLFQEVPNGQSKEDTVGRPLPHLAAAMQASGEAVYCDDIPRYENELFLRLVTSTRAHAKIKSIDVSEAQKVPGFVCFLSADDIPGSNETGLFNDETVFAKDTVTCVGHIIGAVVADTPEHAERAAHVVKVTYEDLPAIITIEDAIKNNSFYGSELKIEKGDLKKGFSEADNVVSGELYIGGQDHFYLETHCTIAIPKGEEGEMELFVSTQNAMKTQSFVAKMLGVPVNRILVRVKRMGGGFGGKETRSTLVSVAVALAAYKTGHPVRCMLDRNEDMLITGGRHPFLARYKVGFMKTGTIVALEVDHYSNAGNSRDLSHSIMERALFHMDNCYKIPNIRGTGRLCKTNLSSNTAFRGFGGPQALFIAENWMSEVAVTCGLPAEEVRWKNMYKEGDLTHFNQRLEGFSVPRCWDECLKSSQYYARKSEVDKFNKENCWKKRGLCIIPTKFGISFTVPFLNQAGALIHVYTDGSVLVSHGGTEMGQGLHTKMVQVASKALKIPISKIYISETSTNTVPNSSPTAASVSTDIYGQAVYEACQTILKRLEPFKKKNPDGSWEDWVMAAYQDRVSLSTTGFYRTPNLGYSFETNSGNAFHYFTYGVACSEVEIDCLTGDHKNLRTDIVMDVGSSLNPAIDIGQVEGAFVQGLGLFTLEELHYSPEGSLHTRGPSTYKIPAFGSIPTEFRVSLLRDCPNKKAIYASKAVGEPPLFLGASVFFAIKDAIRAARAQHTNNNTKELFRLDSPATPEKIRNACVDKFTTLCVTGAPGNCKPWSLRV

Tests used:
[1] = test system: rats given potassium oxonate as a hyperuricemia inducing agent; assay: Serum uric acid level lowering activity of synthetic polypeptides given to the tail vein, intraperitoneal potassium oxonate; format: in vivo, rat; details: 5 mg/kg B.W., immediately before potassium oxonate 250 mg/kg i.p., blood 1 h later
[2] = test system: rat models of hyperuricemia induced by intraperitoneal administration of potassium oxonate; assay: Serum uric acid level lowering activity, hyperuricemia induced by intraperitoneal potassium oxonate (oral dosing); format: in vivo; details: rats, 1 h before potassium oxonate 250 mg/kg i.p.
[3] = molecular target: T1, xanthine oxidase (XO) from butter milk (Bos taurus, UniProt P80457); assay: Uric acid synthetase inhibitory activity of polypeptides (YINY, YNL, GYL, INF); format: biochemical; details: 15 μM xanthine, pH 7.4, 37° C., 10 minutes
T1 construct: xanthine oxidase (XO) from butter milk (from Wako Pure Chemical); purchased Wako Pure Chemical; host or cells: butter milk (natural source)
Method: A polypeptide having SEQ ID No. 2 (YINY), which is contained in the enzyme-digested reverse-phase column fraction of the basic fraction of a shark cartilage extract, was synthesized in the same manner as in Example 7 and added to 200 μl of a 50 mM tris-HCl buffer (pH 7.4) containing 15 μM xanthine as an enzyme substrate to prepare a reaction system. To the reaction system was added 0.1 unit (containing 1 μl of 10 units/100 μl enzyme solution) of xanthine oxidase (XO) from butter milk (from Wako Pure Chemical), followed by allowing the system to react at 37° C. for 10 minutes. The amount of uric acid produced from xanthine by the action of xanthine oxidase was evaluated in terms of changes in optical density (OD, at 292 nm), from which the enzyme activity was calculated from formula previously given.
Polypeptides YNL, GYL, and INF which are contained in the enzyme-digested reverse-phase column fraction of the basic fraction of a shark cartilage extract were synthesized in the same manner as in Example 7 and added to 200 μl of a 50 mM tris-HCl buffer (pH 7.4) containing 15 μM xanthine as an enzyme substrate to prepare a reaction system. […] The amount of uric acid produced from xanthine by the action of xanthine oxidase was evaluated in terms of changes in optical density (OD, at 292 nm), from which the enzyme activity was calculated from formula previously given. […]

Molecule | serum uric acid level [1] | serum uric acid level ([2]; oral 5 to 50 mg/kg B.W., blood 1 h later) | 50% inhibitory dose (ID50), serum uric acid level lowering ([2]; oral) [mg/kg] | xanthine oxidase activity in system containing the polypeptide [3]
YLDNY [YLDNY, Tyr-Leu-Asp-Asn-Tyr] | serum uric acid lowering activity was observed | serum uric acid level lowering activity was observed | 39.3 | 
CC(C)C[C@H](NC(=O)[C@H](CC(N)=O)NC(=O)[C@@H](N)Cc1ccc(O)cc1)C(=O)O [YNL, Tyr-Asn-Leu] (H-Tyr-Asn-Leu-OH; N-terminus and C-terminus assumed) |  |  |  | inhibited
